PubChem BioAssay AID1259308 – NCATS – 2017

Purpose: 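Candidate targets for better recombinant protein yield in mammalian cells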 (primary screen)
Cells: human HEK293 embryonic kidney cells stably expressing firefly luciferase (HEK-CMV-Luc2-Hygro)
Knock-down reagent: single siRNA against human genes, 0.8 pmol siRNA per well
Time to read-out: 72 h
Read-out: 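Luciferase light (ONE-Glo) measured on one replicate plate set and viability (CellTiter-Glo) on the other, scaled to a negative control siRNA, with robust z-scores and luciferase per cell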
Scale: total luciferase, z-score and total luciferase, % of control: higher = more reporter protein produced
Hit rule: 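Active when the median/MAD z-score for overall luciferase is greater than 3; a gene was taken forward for validation with new siRNAs if at least two of its three siRNAs passed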
Calls: active = raised luciferase; inactive = no rise
Shown is an unselected part of about 59,000 reagents tested. About 1,510 of all reagents (2.6%) were called active. 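Calls use total luciferase alone and ignore viability, so some active siRNAs may act by altering cell number.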 Reagents against one gene are numbered here. Further read-outs or replicates are left out here.

gene | reagent no. | total luciferase, z-score | total luciferase, % of control | Call
PTPN14 | 1 | -1.84 | 45.4 | inactive
PTPN14 | 2 | -1.11 | 59.7 | inactive
PTPN14 | 3 | 0.645 | 94.7 | inactive
ACOD1 | 1 | -2.72 | 27.7 | inactive
ACOD1 | 2 | -0.357 | 74.8 | inactive
ACOD1 | 3 | 1.12 | 104 | inactive
EPM2A | 1 | -1.08 | 60.5 | inactive
EPM2A | 2 | -0.249 | 76.9 | inactive
EPM2A | 3 | -0.24 | 77.1 | inactive
CLEC16A | 1 | -1.41 | 53.9 | inactive
CLEC16A | 2 | -1.23 | 57.4 | inactive
CLEC16A | 3 | 2.53 | 132 | inactive
PARVA | 1 | -0.438 | 73.2 | inactive
PARVA | 2 | 0.461 | 91.1 | inactive
PARVA | 3 | 1.77 | 117 | inactive
BLK | 1 | 0.0832 | 83.5 | inactive
BLK | 2 | 0.056 | 83 | inactive
BLK | 3 | 0.267 | 87.2 | inactive
TNIP2 | 1 | 0.141 | 84.7 | inactive
TNIP2 | 2 | 2.15 | 125 | inactive
TNIP2 | 3 | 1.48 | 111 | inactive
NOL4 | 1 | 0.0583 | 83 | inactive
NOL4 | 2 | -1.21 | 57.8 | inactive
NOL4 | 3 | -0.653 | 68.9 | inactive
EIF4E | 1 | 0.406 | 90 | inactive
EIF4E | 2 | 1.92 | 120 | inactive
EIF4E | 3 | -0.684 | 68.3 | inactive
TRIM51G | 1 | 0.443 | 90.7 | inactive
TRIM51G | 2 | 0.0528 | 82.9 | inactive
TRIM51G | 3 | -0.963 | 62.7 | inactive

Quoted from above, 4 entries:
gene | reagent no. | total luciferase, z-score | total luciferase, % of control | Call
PARVA | 1 | -0.438 | 73.2 | inactive
PARVA | 2 | 0.461 | 91.1 | inactive
PARVA | 3 | 1.77 | 117 | inactive
BLK | 1 | 0.0832 | 83.5 | inactive

The listing continues:
gene | reagent no. | total luciferase, z-score | total luciferase, % of control | Call
ZNF56P | 1 | 0.0712 | 83.3 | inactive
ZNF56P | 2 | -0.341 | 75.1 | inactive
ZNF56P | 3 | -0.531 | 71.3 | inactive
PMFBP1 | 1 | -2.89 | 24.3 | inactive
PMFBP1 | 2 | -1.3 | 56.1 | inactive
PMFBP1 | 3 | 0.17 | 85.3 | inactive
CRISP1 | 1 | 1.43 | 110 | inactive
CRISP1 | 2 | 0.144 | 84.8 | inactive
CRISP1 | 3 | 0.863 | 99 | inactive
MGLL | 1 | 1.2 | 106 | inactive
MGLL | 2 | -0.671 | 68.5 | inactive
MGLL | 3 | 0.782 | 97.4 | inactive
TDRD6 | 1 | -0.0763 | 80.4 | inactive
TDRD6 | 2 | -0.11 | 79.7 | inactive
TDRD6 | 3 | -0.193 | 78.1 | inactive
SSU72L6 | 1 | 0.434 | 90.5 | inactive
SSU72L6 | 2 | -0.665 | 68.7 | inactive
SSU72L6 | 3 | 0.239 | 86.6 | inactive
RNF6 | 1 | -1.55 | 51 | inactive
RNF6 | 2 | 0.873 | 99.3 | inactive
RNF6 | 3 | 0.737 | 96.5 | inactive
MFAP1 | 1 | 0.162 | 85.1 | inactive
MFAP1 | 2 | -0.0764 | 80.4 | inactive
MFAP1 | 3 | 0.185 | 85.6 | inactive
NT5DC2 | 1 | 0.469 | 91.2 | inactive
NT5DC2 | 2 | 0.231 | 86.5 | inactive
NT5DC2 | 3 | -0.137 | 79.2 | inactive
